# According to the supplement of paper PMC8728848:
# The list shows a part of the results.
# Columns and labels:
# Test in all cases: glycan array binding signal (z-score within array); higher = stronger binding
# Settings in all cases: glycan notation: IUPAC condensed, linker removed
# [1] = molecular target: Neu5Ac(a2-6)GalNAc(b1-4)GlcNAc6S
# Summary of the method: (§1)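 Glycan array binding is given as a within-array Z-score, which can be read as non-binding when negative. The arrays, 3228 of them, came from the Consortium for Functional Glycomics database and were retained only where the protein sequence was available. Z-scores were averaged across arrays of the same protein sequence at different concentrations or buffers and across linkers.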
# [2] = molecular target: Neu5Ac(a2-6)GlcNAc(b1-4)GlcNAc
# Summary of the method: as §1
# [3] = molecular target: Neu5Ac(a2-6)GlcNAc(b1-4)GlcNAc(b1-4)GlcNAc
# Summary of the method: as §1
# [4] = molecular target: Neu5Ac(a2-8)Neu5Ac
# Summary of the method: as §1
# [5] = molecular target: Neu5Ac(a2-8)Neu5Ac(a2-3)Gal(b1-3)GalNAc(b1-4)[Neu5Ac(a2-8)Neu5Ac(a2-3)]Gal(b1-4)Glc
# Summary of the method: as §1
# [6] = molecular target: Neu5Ac(a2-8)Neu5Ac(a2-3)Gal(b1-4)Glc
# Summary of the method: as §1
# [7] = molecular target: Neu5Ac(a2-8)Neu5Ac(a2-3)[Gal(b1-3)GalNAc(b1-4)]Gal(b1-4)Glc
# Summary of the method: as §1
# [8] = molecular target: Neu5Ac(a2-8)Neu5Ac(a2-3)[GalNAc(b1-4)]Gal(b1-4)Glc
# Summary of the method: as §1
# [9] = molecular target: Neu5Ac(a2-8)Neu5Ac(a2-8)Neu5Ac
# Summary of the method: as §1
# [10] = molecular target: Neu5Ac(a2-8)Neu5Ac(a2-8)Neu5Ac(a2-3)Gal(b1-4)Glc
# Summary of the method: as §1
# [11] = molecular target: Neu5Ac(a2-8)Neu5Ac(a2-8)Neu5Ac(a2-3)[GalNAc(b1-4)]Gal(b1-4)Glc
# Summary of the method: as §1
# [12] = molecular target: Neu5Ac(a2-8)Neu5Ac(a2-8)Neu5Ac(a2-8)Neu5Ac(a2-3)[GalNAc(b1-4)]Gal(b1-4)Glc
# Summary of the method: as §1
# [13] = molecular target: Neu5Ac(b2-6)Gal(b1-4)GlcNAc
# Summary of the method: as §1
# [14] = molecular target: Neu5Ac(b2-6)GalNAc
# Summary of the method: as §1
# [15] = molecular target: Neu5Ac9Ac(a2-3)Gal(b1-3)GlcNAc
# Summary of the method: as §1
# [16] = molecular target: Neu5Ac9Ac(a2-3)Gal(b1-4)GlcNAc
# Summary of the method: as §1
# [17] = molecular target: Neu5Ac9Ac(a2-6)Gal(b1-4)GlcNAc
# Summary of the method: as §1
# [18] = molecular target: Neu5Gc(a2-3)Gal(b1-3)GlcNAc
# Summary of the method: as §1
# [19] = molecular target: Neu5Gc(a2-3)Gal(b1-3)[Fuc(a1-4)]GlcNAc
# Summary of the method: as §1
# [20] = molecular target: Neu5Gc(a2-3)Gal(b1-4)Glc
# Summary of the method: as §1
# [21] = molecular target: Neu5Gc(a2-3)Gal(b1-4)GlcNAc
# Summary of the method: as §1
# [22] = molecular target: Neu5Gc(a2-3)Gal(b1-4)[Fuc(a1-3)]GlcNAc
# Summary of the method: as §1
# [23] = molecular target: Neu5Gc(a2-6)Gal(b1-4)GlcNAc
# Summary of the method: as §1
# [24] = molecular target: Neu5Gc(a2-6)GalNAc
# Summary of the method: as §1
# [25] = molecular target: Neu5Gc(b2-6)Gal(b1-4)GlcNAc
# Summary of the method: as §1
binder,measurement,setting,value
Intelectin-1a (Mus musculus) (protein) AEWSHPQFEKAEENLDTNRWGNSFFSSLPRSCKEIKQEHTKAQDGLYFLRTKNGVIYQTFCDMTTAGGGWTLVASVHENNMRGKCTVGDRWSSQQGNRADYPEGDGNWANYNTFGSAEAATSDDYKNPGYFDIQAENLGIWHVPNKSPLHNWRKSSLLRYRTFTGFLQHLGHNLFGLYKKYPVKYGEGKCWTDNGPALPVVYDFGDARKTASYYSPSGQREFTAGYVQFRVFNNERAASALCAGVRVTGCNTEHHCIGGGGFFPEGNPVQCGDFASFDWDGYGTHNGYSSSRKITEAAVLLFYR,glycan array binding signal (z-score),[1],0.868
same,glycan array binding signal (z-score),[2],-0.053
same,glycan array binding signal (z-score),[3],-0.544
same,glycan array binding signal (z-score),[4],-1.09
same,glycan array binding signal (z-score),[5],-1.3
same,glycan array binding signal (z-score),[6],0.434
same,glycan array binding signal (z-score),[7],-1.14
same,glycan array binding signal (z-score),[8],-0.791
same,glycan array binding signal (z-score),[9],0.231
same,glycan array binding signal (z-score),[10],-0.483
same,glycan array binding signal (z-score),[11],0.726
same,glycan array binding signal (z-score),[12],0.079
same,glycan array binding signal (z-score),[13],-0.753
same,glycan array binding signal (z-score),[14],0.517
same,glycan array binding signal (z-score),[15],-1.63
same,glycan array binding signal (z-score),[16],-1.31
same,glycan array binding signal (z-score),[17],-0.95
same,glycan array binding signal (z-score),[18],0.012
same,glycan array binding signal (z-score),[19],-1.1
same,glycan array binding signal (z-score),[20],0.613
same,glycan array binding signal (z-score),[21],-1.06
same,glycan array binding signal (z-score),[22],0.726
same,glycan array binding signal (z-score),[23],0.855
same,glycan array binding signal (z-score),[24],-0.33
same,glycan array binding signal (z-score),[25],0.206
